These are yes or no findings as the source states them, for the method shown. In cells and extracts the contact can be indirect. A result given as binding can be weak or reduced; the word gives no strength.
Target: T1, 6-phosphofructo-2-kinase/fructose-2,6-biphosphatase 3 (mouse (endogenous in C2C12 and in C57BL/6 tibialis anterior muscle)) (UniProt Q7TS91)
T1 sequence: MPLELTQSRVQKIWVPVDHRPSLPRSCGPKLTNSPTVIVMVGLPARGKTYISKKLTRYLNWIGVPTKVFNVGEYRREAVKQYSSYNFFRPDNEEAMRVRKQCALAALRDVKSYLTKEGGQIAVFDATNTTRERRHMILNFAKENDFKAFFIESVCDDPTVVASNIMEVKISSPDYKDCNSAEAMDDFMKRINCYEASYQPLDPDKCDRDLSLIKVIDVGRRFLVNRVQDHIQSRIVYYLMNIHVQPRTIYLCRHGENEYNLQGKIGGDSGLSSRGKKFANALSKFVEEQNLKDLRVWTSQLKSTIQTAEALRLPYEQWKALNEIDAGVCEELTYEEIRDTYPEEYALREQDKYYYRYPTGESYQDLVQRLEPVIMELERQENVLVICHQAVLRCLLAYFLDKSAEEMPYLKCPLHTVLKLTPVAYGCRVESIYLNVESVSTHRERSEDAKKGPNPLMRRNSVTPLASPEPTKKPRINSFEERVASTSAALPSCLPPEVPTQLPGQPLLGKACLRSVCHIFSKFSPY
Test: co-IP; total protein from mouse TA muscles 5 days after cardiotoxin injection in RIPA lysis buffer, precleared with anti-species-specific IgG beads, incubated with PFKFB3 and ADK antibodies for 3 h at 4 °C, then protein A/G agarose beads; Western blotting

Substance: Myosin
- binding: binds

Source: PMC12733700
